# Data source: PubChem BioAssay AID743121 (NCATS, 2013)
# Test: 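Genes whose silencing strengthens cell killing by camptothecin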 (primary screen)
# Cell system: MDA-MB-231 cells, a human breast cancer line
# Knock-down reagent: single siRNA against human genes, 20 nM siRNA (0.8 pmol per well)
# Time to read-out: 120 h (drug added 48 h after transfection, read 72 h later)
# Challenge: camptothecin 20 nM (about EC30) for 72 h; vehicle 0.1% DMSO in parallel plates
# Measured: 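CellTiter-Glo ATP signal, scaled to control siRNA as percent viability; sensitisation given as log2 of untreated divided by camptothecin-treated viability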
# Direction: log2 vehicle/camptothecin viability: higher = stronger sensitisation to camptothecin; viability with camptothecin and viability without drug: higher = more viable cells
# Hit rule: 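Active genes have an RSA gene-level p-value below 0.001, computed from the ratios of their separate siRNAs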
# Here is a random part of about 26,000 reagents. 167 of all reagents (0.63%) were called active. 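Calls are per gene from RSA p-values that are not deposited; an individual active-marked siRNA can sensitise only weakly.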 Entries without a mark were called inactive. The numbers tell different reagents against one gene apart.
gene,reagent,log2 vehicle/camptothecin viability,viability with camptothecin (% of control),viability without drug (% of control)
NPTN (neuroplastin),1,0.602,34.8,52.8
NPTN (neuroplastin),2,-0.311,98.6,79.5
NPTN (neuroplastin),3,0.186,53.4,60.8
SLC7A8,1,-0.416,108,81.3
SLC7A8,2,-0.0889,111,105
SLC7A8,3,-0.308,40.7,32.9
CORT (cortistatin),1,0.252,97.3,116
CORT (cortistatin),2,0.233,74.9,88.1
CORT (cortistatin),3,-0.195,102,89.1
CORT (cortistatin),4,-0.0666,103,98.8
TMC5 (transmembrane channel like 5),1,-0.0444,43.5,42.2
TMC5 (transmembrane channel like 5),2,-0.369,76.5,59.2
TMC5 (transmembrane channel like 5),3,2.15,12.4,54.8
TMC5 (transmembrane channel like 5),4,-0.406,82.9,62.6

4 of these entries, reformatted.
NPTN (neuroplastin) #1
- log2 vehicle/camptothecin viability: 0.602
- viability with camptothecin (% of control): 34.8
- viability without drug (% of control): 52.8

NPTN (neuroplastin) #2
- log2 vehicle/camptothecin viability: -0.311
- viability with camptothecin (% of control): 98.6
- viability without drug (% of control): 79.5

NPTN (neuroplastin) #3
- log2 vehicle/camptothecin viability: 0.186
- viability with camptothecin (% of control): 53.4
- viability without drug (% of control): 60.8

SLC7A8 #1
- log2 vehicle/camptothecin viability: -0.416
- viability with camptothecin (% of control): 108
- viability without drug (% of control): 81.3

The results go on:
gene,reagent,log2 vehicle/camptothecin viability,viability with camptothecin (% of control),viability without drug (% of control)
SSH1 (slingshot protein phosphatase 1),1,-0.109,100,92.9
SSH1 (slingshot protein phosphatase 1),2,-0.46,97.1,70.6
SSH1 (slingshot protein phosphatase 1),3,0.252,30.3,36.1
SSH1 (slingshot protein phosphatase 1),4,0.195,77.9,89.2
SDHB (succinate dehydrogenase complex iron sulfur subunit B),1,-0.0765,82.6,78.4
SDHB (succinate dehydrogenase complex iron sulfur subunit B),2,0.289,27.6,33.8
SDHB (succinate dehydrogenase complex iron sulfur subunit B),3,-0.495,77.1,54.7
SDHB (succinate dehydrogenase complex iron sulfur subunit B),4,-0.21,91.1,78.7
CA6 (carbonic anhydrase 6),1,0.11,99.7,108
CA6 (carbonic anhydrase 6),2,0.232,64.2,75.4
CA6 (carbonic anhydrase 6),3,-0.441,80.1,59
CA6 (carbonic anhydrase 6),4,-0.142,96.9,87.8
NR0B1 (nuclear receptor subfamily 0 group B member 1),1,-0.0254,86.3,84.8
NR0B1 (nuclear receptor subfamily 0 group B member 1),2,0.214,87,101
NR0B1 (nuclear receptor subfamily 0 group B member 1),3,-0.616,31.6,20.6
NR0B1 (nuclear receptor subfamily 0 group B member 1),4,-0.0256,104,102
